Data as given in publication PMC7366679.

By UniProt entry, the sequences of proteins in these tests, tags left out.
UniProt Q9NR09: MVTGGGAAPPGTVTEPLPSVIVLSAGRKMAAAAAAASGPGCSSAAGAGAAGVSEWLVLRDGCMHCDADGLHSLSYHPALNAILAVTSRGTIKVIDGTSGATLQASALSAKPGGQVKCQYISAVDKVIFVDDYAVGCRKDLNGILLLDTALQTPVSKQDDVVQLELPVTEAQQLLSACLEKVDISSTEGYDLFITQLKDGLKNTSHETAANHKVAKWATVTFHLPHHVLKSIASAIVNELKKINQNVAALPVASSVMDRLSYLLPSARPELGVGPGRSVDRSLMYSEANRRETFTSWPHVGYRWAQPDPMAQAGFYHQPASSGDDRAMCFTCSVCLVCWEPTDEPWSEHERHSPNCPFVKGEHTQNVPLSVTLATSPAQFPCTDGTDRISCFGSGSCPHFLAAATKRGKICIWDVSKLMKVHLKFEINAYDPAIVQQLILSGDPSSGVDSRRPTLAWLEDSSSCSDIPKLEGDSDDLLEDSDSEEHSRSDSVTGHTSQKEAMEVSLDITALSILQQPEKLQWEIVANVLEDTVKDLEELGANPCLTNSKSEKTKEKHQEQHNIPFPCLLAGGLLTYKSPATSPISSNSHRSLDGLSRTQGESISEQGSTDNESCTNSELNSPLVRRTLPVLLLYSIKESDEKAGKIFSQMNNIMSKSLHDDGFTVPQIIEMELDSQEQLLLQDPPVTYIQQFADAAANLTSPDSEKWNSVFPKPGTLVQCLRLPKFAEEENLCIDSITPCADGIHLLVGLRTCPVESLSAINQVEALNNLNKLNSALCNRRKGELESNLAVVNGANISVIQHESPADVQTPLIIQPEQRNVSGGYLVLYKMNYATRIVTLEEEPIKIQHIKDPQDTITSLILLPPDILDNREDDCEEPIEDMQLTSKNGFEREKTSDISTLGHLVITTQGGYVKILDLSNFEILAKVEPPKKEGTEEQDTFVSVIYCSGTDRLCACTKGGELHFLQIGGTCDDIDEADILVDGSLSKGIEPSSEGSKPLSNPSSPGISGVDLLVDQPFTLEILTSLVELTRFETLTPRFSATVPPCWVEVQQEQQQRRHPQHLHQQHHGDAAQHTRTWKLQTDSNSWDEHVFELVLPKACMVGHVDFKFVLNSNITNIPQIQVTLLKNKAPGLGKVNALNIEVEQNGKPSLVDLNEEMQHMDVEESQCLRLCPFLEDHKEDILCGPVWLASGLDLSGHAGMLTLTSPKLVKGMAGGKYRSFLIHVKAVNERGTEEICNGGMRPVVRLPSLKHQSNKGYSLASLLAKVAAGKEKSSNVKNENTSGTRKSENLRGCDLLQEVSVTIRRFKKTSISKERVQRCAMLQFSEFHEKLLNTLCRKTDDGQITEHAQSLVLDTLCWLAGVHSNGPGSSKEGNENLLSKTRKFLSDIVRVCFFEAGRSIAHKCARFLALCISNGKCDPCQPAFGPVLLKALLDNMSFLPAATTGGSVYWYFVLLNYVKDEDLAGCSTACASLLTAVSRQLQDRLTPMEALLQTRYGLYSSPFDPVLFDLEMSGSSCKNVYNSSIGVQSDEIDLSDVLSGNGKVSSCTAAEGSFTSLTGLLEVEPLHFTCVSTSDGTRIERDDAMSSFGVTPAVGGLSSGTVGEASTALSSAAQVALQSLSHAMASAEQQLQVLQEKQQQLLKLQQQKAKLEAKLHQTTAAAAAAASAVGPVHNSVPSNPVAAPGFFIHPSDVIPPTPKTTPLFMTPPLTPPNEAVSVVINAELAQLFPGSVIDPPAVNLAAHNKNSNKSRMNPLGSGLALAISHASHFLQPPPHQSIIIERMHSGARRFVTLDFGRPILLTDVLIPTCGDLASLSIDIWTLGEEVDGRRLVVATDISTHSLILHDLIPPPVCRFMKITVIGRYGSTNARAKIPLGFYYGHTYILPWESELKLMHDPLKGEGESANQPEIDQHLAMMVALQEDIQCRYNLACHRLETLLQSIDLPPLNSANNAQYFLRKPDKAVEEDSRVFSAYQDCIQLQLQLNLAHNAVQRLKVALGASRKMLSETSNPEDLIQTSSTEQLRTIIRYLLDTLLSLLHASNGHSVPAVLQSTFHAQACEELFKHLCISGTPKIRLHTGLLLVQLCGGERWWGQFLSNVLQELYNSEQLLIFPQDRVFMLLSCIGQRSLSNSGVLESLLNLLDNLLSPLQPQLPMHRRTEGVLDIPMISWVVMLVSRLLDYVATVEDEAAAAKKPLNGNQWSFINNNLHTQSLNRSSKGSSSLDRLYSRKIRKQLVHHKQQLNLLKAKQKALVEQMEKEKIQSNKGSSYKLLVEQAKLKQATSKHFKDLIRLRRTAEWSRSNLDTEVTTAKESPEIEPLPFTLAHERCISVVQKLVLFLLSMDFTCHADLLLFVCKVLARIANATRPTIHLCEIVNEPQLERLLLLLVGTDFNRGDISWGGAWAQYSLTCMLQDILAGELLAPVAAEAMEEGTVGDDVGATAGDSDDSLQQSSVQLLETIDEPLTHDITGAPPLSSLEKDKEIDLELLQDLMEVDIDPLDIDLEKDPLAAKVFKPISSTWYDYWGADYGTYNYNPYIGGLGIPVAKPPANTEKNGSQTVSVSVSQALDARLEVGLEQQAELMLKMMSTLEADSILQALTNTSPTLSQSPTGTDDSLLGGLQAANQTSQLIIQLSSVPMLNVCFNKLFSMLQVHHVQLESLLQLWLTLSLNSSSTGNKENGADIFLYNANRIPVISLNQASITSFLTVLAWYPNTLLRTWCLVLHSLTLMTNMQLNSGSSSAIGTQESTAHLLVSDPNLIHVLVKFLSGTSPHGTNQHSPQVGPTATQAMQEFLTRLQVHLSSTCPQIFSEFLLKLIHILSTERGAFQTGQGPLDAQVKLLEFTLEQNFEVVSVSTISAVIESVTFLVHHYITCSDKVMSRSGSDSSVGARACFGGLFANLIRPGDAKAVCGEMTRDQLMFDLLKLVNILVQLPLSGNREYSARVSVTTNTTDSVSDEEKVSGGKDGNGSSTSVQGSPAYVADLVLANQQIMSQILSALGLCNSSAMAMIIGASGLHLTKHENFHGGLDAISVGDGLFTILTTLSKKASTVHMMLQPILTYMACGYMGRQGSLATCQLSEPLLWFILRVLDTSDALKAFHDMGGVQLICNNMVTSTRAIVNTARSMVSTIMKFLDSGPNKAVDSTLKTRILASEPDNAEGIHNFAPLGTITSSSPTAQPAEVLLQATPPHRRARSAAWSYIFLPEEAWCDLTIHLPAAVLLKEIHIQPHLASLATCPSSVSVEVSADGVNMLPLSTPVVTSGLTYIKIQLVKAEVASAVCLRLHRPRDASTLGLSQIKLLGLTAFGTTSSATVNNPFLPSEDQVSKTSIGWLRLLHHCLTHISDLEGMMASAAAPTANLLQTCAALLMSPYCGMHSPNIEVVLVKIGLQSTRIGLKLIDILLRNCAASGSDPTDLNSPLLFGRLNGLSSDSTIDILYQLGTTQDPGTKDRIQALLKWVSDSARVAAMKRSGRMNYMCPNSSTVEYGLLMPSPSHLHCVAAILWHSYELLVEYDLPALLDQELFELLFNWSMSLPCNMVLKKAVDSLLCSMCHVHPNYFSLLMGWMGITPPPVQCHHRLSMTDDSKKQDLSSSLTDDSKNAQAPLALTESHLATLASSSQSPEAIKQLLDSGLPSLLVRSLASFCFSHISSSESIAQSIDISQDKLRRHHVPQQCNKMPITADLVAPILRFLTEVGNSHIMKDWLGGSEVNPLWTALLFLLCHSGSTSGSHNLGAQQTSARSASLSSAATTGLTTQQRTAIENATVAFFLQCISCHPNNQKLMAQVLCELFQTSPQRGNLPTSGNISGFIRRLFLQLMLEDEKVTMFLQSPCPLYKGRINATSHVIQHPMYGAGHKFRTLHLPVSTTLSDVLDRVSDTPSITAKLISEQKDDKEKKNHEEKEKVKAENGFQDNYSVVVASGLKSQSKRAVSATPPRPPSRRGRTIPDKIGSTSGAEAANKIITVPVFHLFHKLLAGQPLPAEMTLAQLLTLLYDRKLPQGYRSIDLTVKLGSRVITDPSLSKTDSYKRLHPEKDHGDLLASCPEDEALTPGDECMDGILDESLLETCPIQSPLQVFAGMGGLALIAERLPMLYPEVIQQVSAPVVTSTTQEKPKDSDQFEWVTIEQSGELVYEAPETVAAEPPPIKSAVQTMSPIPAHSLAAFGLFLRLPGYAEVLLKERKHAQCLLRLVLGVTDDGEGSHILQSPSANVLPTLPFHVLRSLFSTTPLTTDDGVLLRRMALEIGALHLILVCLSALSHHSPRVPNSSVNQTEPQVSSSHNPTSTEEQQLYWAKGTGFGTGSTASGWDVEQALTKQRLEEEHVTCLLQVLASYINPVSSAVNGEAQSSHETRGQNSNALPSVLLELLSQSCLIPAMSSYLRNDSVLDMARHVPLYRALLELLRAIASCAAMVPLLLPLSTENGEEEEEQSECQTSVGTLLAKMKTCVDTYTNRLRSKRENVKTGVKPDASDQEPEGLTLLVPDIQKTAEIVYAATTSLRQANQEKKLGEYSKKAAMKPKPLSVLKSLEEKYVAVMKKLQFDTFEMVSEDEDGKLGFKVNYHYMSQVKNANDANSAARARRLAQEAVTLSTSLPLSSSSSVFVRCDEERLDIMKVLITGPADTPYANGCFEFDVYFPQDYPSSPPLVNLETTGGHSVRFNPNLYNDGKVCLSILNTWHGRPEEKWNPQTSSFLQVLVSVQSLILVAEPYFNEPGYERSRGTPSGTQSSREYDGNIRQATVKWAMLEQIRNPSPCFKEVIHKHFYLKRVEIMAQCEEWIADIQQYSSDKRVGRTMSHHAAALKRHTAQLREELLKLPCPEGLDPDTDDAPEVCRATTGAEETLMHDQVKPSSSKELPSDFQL

Biological target: T1, Dyrk2, wild type, tagged bait (Strep-HA or FLAG-BirA*; which is not told for these hits) (human) (UniProt Q92630)
T1 sequence: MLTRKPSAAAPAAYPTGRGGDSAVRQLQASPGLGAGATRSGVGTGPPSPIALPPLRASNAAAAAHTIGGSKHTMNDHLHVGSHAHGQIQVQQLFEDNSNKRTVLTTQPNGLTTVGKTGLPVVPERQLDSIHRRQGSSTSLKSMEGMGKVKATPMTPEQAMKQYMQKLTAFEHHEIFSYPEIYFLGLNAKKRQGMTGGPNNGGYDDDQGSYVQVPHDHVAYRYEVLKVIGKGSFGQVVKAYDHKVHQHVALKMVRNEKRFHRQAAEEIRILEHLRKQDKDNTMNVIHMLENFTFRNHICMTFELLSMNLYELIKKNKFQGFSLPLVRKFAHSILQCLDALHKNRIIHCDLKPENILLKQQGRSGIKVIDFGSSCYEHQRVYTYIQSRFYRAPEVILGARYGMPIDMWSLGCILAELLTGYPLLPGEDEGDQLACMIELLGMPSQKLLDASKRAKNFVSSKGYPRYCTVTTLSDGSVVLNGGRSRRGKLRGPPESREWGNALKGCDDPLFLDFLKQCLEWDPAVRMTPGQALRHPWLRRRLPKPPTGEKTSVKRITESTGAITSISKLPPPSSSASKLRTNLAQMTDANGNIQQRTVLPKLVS
Assay: affinity purification with mass spectrometry + proximity labelling; reference interaction network of the wild-type baits (Dyrk2, DDB1, VprBP, Ubr5) in T-REx HEK293 cells; the text does not tell by which of the two methods the hit was found

Q: Which binding does the source give for p53 (from UniProt P04637 1-393) here?
A: Its binding is “binds”.

Q: With “ubiquitin ligase Birc6 (from UniProt Q9NR09 1-4857)” as the substance, how does the binding read?
A: The binding was “binds”.

No constants are given. Whether binding was seen depends on the method and setting. Binding seen in cells or lysates may run through a third protein. Here binding means that the protein was enriched with, or labelled near, the bait; the list need not be complete. Sequences can lack the tags named with a protein.
